Reference: PubChem BioAssay AID1487 (National Center for Advancing Translational Sciences (NCATS), 2009)
The list shows a part of the results. Further columns of the screen follow, without active or inactive calls. The list favours compounds with an active or inconclusive main result. Potencies come from curve fits of mixed quality, noted in brackets.

Test: qHTS Assay for Modulators of Lamin A Splicing
Settings: HeLa LMNA splicing GFP/RFP minigene ratio, 48 h
Procedure, shortened: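 S3 HeLa cells stably expressing lamin A-EGFP splicing minigene plus DsRed2, 600 cells/well, 48 h compound exposure at 37C. Laser-scanning cytometry; analysed as GFP (500-530 nm)/RFP (575-640 nm) total intensity ratio; 0.5% DMSO vehicle.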

[1] = measured here: GFP splicing reporter channel
[2] = measured here: RFP viability control channel

| SMILES | AC50 [1] | AC50 [2] |
| --- | --- | --- |
| O=C(Nc1ccc2oc(-c3ccccc3)nc2c1)c1ccncc1 | 17.8 µM [rising, partial curve] | 12.6 µM [rising, partial curve] |
| O=C(Nc1cccc(-c2nc3cc(Cl)ccc3o2)c1)c1ccc(F)cc1 | 35.5 µM [falling, single point] | 35.5 µM [falling, single point] |
| COc1cc(OC)nc(S(C)(=O)=O)n1 | – | 0.00398 µM [falling, full curve, poor fit] |
| NC(=S)N/N=C/c1ccc(-c2cc(Cl)cc(Cl)c2)o1 | 15.8 µM [rising, partial curve, poor fit] | 22.4 µM [rising, single point] |
| Cc1ccc2nc(N(CCN(C)C)C(=O)/C=C/c3cccs3)sc2c1 | 5.01 µM [rising, single point] | – |
| Cc1ccc2nc(-c3ccccn3)cc(C(=O)Nc3ccc(S(=O)(=O)N4CCOCC4)cc3)c2c1 | 0.1 µM [falling, full curve, poor fit] | – |
| O=C(Nc1cccc(Cl)c1)Nc1nnc(CSCCOc2ccc(Cl)cc2)s1 | – | 3.16 µM [rising, full curve] |
| CN(C)CCCN(C(=O)c1sc2ccccc2c1Cl)c1nc2ccc(F)cc2s1 | 11.2 µM [rising, partial curve] | 12.6 µM [rising, partial curve] |
| O=C(CCn1cnc2onc(-c3ccc(F)cc3)c2c1=O)N1CCN(c2ccccc2)CC1 | – | 35.5 µM [falling, partial curve, poor fit] |
| O=C(c1cnc(N2CCCCC2)c2ccccc12)N1CCN(c2ccc(Cl)cc2)CC1 | 0.000562 µM [falling, full curve, poor fit] | 6.31 µM [falling, partial curve, poor fit] |
| Cc1ccc(C2CC(C(F)(F)F)n3nc(C(=O)NCc4c(C)nn(C)c4C)c(Cl)c3N2)cc1 (stereo not drawn) | 11.2 µM [rising, partial curve] | 11.2 µM [rising, partial curve] |
| Cc1ccc(C)c(S(=O)(=O)NCCc2csc(-c3ccc(Cl)cc3)n2)c1 | 35.5 µM [falling, single point] | 35.5 µM [falling, single point] |
| O=C(COC(=O)c1ccc(Oc2ccccc2)cc1)Nc1nnc(-c2ccccc2)o1 | – | 35.5 µM [rising, single point] |
| Cc1cc(C)c2sc(N(Cc3cccnc3)C(=O)CCOc3ccccc3)nc2c1 | 6.31 µM [falling, partial curve, poor fit] | – |
| CC1=CC(C)(C)N(S(=O)(=O)c2ccc(C)cc2)c2ccccc21 | 2.82 µM [falling, partial curve] | 5.62 µM [rising, single point] |
| COc1ccccc1-c1nnc2sc(COc3ccc(Cl)cc3Cl)nn12 | 10 µM [falling, partial curve, poor fit] | 12.6 µM [falling, partial curve, poor fit] |
| O=c1cc(-c2ccccc2)[nH]n1-c1ccc([N+](=O)[O-])cc1 | 22.4 µM [falling, single point] | 35.5 µM [falling, single point] |

Part of the list above, reformatted:
SMILES	AC50 [1]	AC50 [2]
NC(=S)N/N=C/c1ccc(-c2cc(Cl)cc(Cl)c2)o1	15.8 µM [rising, partial curve, poor fit]	22.4 µM [rising, single point]
Cc1ccc2nc(N(CCN(C)C)C(=O)/C=C/c3cccs3)sc2c1	5.01 µM [rising, single point]	–
Cc1ccc2nc(-c3ccccn3)cc(C(=O)Nc3ccc(S(=O)(=O)N4CCOCC4)cc3)c2c1	0.1 µM [falling, full curve, poor fit]	–
O=C(Nc1cccc(Cl)c1)Nc1nnc(CSCCOc2ccc(Cl)cc2)s1	–	3.16 µM [rising, full curve]
CN(C)CCCN(C(=O)c1sc2ccccc2c1Cl)c1nc2ccc(F)cc2s1	11.2 µM [rising, partial curve]	12.6 µM [rising, partial curve]
O=C(CCn1cnc2onc(-c3ccc(F)cc3)c2c1=O)N1CCN(c2ccccc2)CC1	–	35.5 µM [falling, partial curve, poor fit]
O=C(c1cnc(N2CCCCC2)c2ccccc12)N1CCN(c2ccc(Cl)cc2)CC1	0.000562 µM [falling, full curve, poor fit]	6.31 µM [falling, partial curve, poor fit]
Cc1ccc(C2CC(C(F)(F)F)n3nc(C(=O)NCc4c(C)nn(C)c4C)c(Cl)c3N2)cc1 (stereo not drawn)	11.2 µM [rising, partial curve]	11.2 µM [rising, partial curve]
Cc1ccc(C)c(S(=O)(=O)NCCc2csc(-c3ccc(Cl)cc3)n2)c1	35.5 µM [falling, single point]	35.5 µM [falling, single point]
O=C(COC(=O)c1ccc(Oc2ccccc2)cc1)Nc1nnc(-c2ccccc2)o1	–	35.5 µM [rising, single point]

Next part:

| SMILES | AC50 [1] | AC50 [2] |
| --- | --- | --- |
| COc1ccc(CSc2nc(C)cc(=O)[nH]2)cc1Br | – | 11.2 µM [rising, partial curve] |
| C=CCC1NCCc2c(Br)cccc21 (stereo not drawn) | 7.08 µM [falling, partial curve, poor fit] | – |
| O=C(O)c1ccc(OC2CSC2)cc1 | – | 6.31 µM [falling, single point] |
| O=[N+]([O-])c1ccc(C[n+]2cccc3c4ccccc4ccc32)cc1 | – | 0.00447 µM [falling, full curve, poor fit] |
| Cn1c(O)c(C2=c3ccccc3=NC2=O)[nH]c1=S | 2.82 µM [rising, full curve, poor fit] | 4.47 µM [rising, partial curve] |
| Cc1ccc(C(c2c(C)nn(-c3ccccc3)c2N)c2c(C)nn(-c3ccccc3)c2N)cc1 | 3.55 µM [rising, full curve] | 0.141 µM [rising, full curve, poor fit] |
| COc1ccc(NC(=S)Nc2cccc(C(C)=O)c2)cc1OC | – | 11.2 µM [rising, single point] |
| COc1cc(NC(=O)CSc2nc3[nH]ncc3c(=O)n2-c2ccccc2C)cc(OC)c1OC | 15.8 µM [rising, single point] | – |
| Nc1ccc(-c2nc3nc(N)nc(N)c3nc2-c2ccc(N)cc2)cc1 | 11.2 µM [rising, partial curve, poor fit] | – |
| CC1(C)CC(=O)C2=C(C1)NC1=C(C(=O)c3ccccc31)C2c1ccc(O)cc1 (stereo not drawn) | – | 35.5 µM [rising, single point] |
| O=C(Nc1ccc(S(=O)(=O)N2CCc3ccccc3C2)cc1)C1CCCO1 (stereo not drawn) | 10 µM [rising, single point] | 17.8 µM [rising, partial curve] |
| c1cncc(-c2nccc(NCc3cccs3)n2)c1 | 0.282 µM [falling, full curve, poor fit] | – |
| C=C(C)c1cccc(C(C)(C)NC(=O)Nc2ccc(OC)cc2)c1 | 0.0112 µM [falling, full curve, poor fit] | – |
| CCCCc1ccc(NS(=O)(=O)c2ccc(N3CCCCS3(=O)=O)cc2)cc1 | – | 22.4 µM [rising, partial curve, poor fit] |
| Cc1cccc(-n2nnc(C(=O)Nc3ccc(F)cc3)c2N)c1 | – | 0.0126 µM [rising, full curve, poor fit] |
| CS(=O)(=O)Nc1ccc(C2=NN(S(C)(=O)=O)C(c3cccs3)C2)cc1 (stereo not drawn) | – | 0.0224 µM [falling, single point] |
| O=c1c(-c2cc(F)cc(F)c2)nc2cnc(N3CCNCC3)nc2n1C1CC1 | 15.8 µM [falling, partial curve] | 14.1 µM [falling, single point] |
